Experimental findings from PubChem BioAssay AID2685 (National Center for Advancing Translational Sciences (NCATS), 2010) are described below.

The experiment in a line: qHTS Assay for Lipid Storage Modulators in Drosophila S3 Cells.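 As to cell number change: cells counted by Cell Tracker Red CMTPX staining in the red channel.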 The following applies: BODIPY lipid droplet fluorescence, 18-24 h; for cell number change: measured here: cell count max response, cells fed with added oleic acid. An excerpt: NIH Molecular Libraries Probe Production Centers Network [MLPCN] NIH Chemical Genomics Center [NCGC] MLPCN Grant: 1 R03 MH085686-01 Assay Submitter (PI): Beller, Mathias; Max-Planck-Institut fur Biophysikalische Chemie NCGC Assay Overview: Storing lipids as a reservoir for energy or the anabolism of elementary metabolites is a common feature of probably all cells and is conserved from bacteria to humans. The universal cellular lipid storage organelle is the so-called lipid storage droplet (LD). Although ubiquitous, LDs share a simple structure composed of a hydrophobic core that harbors the storage lipids, which is shielded by a droplet-specific phospholipid monolayer to which proteins are attached. The current model of LD biogenesis involves an incorporation of the lipid core into the membrane leaflets of the endoplasmic reticulum (ER) followed by a subsequent budding-like maturation of a LD, which ultimately pinches off. Once released, LD volume can increase by localized lipogenesis or fusion of existing droplet. Storage lipids are re-mobilized enzymatically by lipase activity. Lipase regulation in the adipocyte is heavily studied and involves multiple components including catecholamine signaling, the LD-associated proteins Perilipin and comparative gene identification (CGI-58) and at least two lipases named hormone sensitive lipase (HSL) and adipocyte triglyceride lipase (ATGL). LD regulation outside of the adipocyte is poorly understood and only few components are known. However, there is an urgent need to learn more about ectopic fat depots as mislocalized storage of lipids, for example in the liver or muscle, is an eminent health problem associated with insulin resistance or the metabolic syndrome. We developed a laser-scanning cytometer assay to enable 1,536-well screening and combined the results of the small molecules screen with an RNAi database based on lipid storage.
Triacsin C (Sigma-Aldrich T-4540), an inhibitor of long-chain fatty acyl CoA synthetase that blocks synthesis of triglycerides, was used as a positive control for lipid under-storage. A total of 23 nL of compound solution of different concentrations were transferred to the assay plates using a Kalypsys pin tool equipped with a 1,536-pin array containing 10-nL slotted pins (FP1S10, 0.457-mm diameter, 50.8 mm long; V&P Scientific). One microliter of oleic acid (400 uM) was added, and the plate was lidded with stainless steel rubber gasket lined lids containing pinholes. […] Fluorescence was detected by excitation of the fluorophores with a 488-nm laser on an Acumen Explorer (TTP Lab Tech). The total intensity in channel 2 (500-530 nm) reflected lipid droplet accumulation. Cells were detected using channel 3 (575-640 nm) with 5-um width and 100-um depth filters. The ratio of the number of objects in PMT channel 2 over the number of objects in PMT channel 3 was also calculated. Percent activity was computed relative to an internal control (100% inhibited lipid droplet deposition due to the presence of 20 uM Triacsin C), which was added to 32 wells/plate.

Where [1] appears, read: measured here: lipid fluorescence (Fed channel) AC50, cells fed with added oleic acid.
Where [2] appears, read: measured here: cell number channel AC50, cells fed with added oleic acid.

Some of the results follow. Shown are side measurements of this screen, not its main read-out; they come without a call. Most of these compounds were active or inconclusive in the main read-out, so they are no random draw. The note in brackets gives the kind of curve behind each potency; many fits are weak.

On to `O=C1c2ccccc2C(Nc2ccccc2)N1c1cccnc1` (stereo not drawn), for which the concentration at half-maximal activity (AC50) – broadly, the concentration giving half of the maximal activity seen – under setting [1] was 6.51 µM [falling, single point].

As to `Cc1nc2ccc(S(=O)(=O)NCC(=O)NCCc3ccc(Cl)cc3)cc2s1`, the cell number change is 41.1%. Moreover, the concentration at half-maximal activity (AC50) under setting [2] is 16.4 µM [rising, single point]. Moreover, the concentration at half-maximal activity (AC50) under setting [1] is 29.1 µM [rising, single point]. Turning to `CN(C(=O)CSc1nnc(-c2c[nH]c3ccccc23)o1)C1CCS(=O)(=O)C1` (stereo not drawn), the cell number change was -86.6%. For the same molecule, the half-maximal activity concentration (AC50) under setting [2] is 29.1 µM [falling, partial curve]. Take `Cc1sc(NC(=O)C2CSC3(C)CCC(=O)N23)nc1-c1ccccc1` (stereo not drawn): the cell number change is -29.7%. In addition, the AC50 under setting [2] was 2.59 µM [falling, full curve, poor fit]. Besides, the AC50 under setting [1] is 29.1 µM [falling, single point]. For the molecule `COc1ccc(-n2c(=O)c3ccccc3n(CC(=O)NC3CCCCC3)c2=O)cc1`, the cell number change came out at 64.6%. Besides, the concentration at half-maximal activity (AC50) under setting [2] is 9.2 µM [rising, partial curve]. Turning to `COC(=O)c1ccccc1NC(=O)c1cc(-c2ccc(C)cc2)on1`, the cell number change turned out to be 2.65%. For the molecule `CCCC(=O)Nc1ccccc1N1CCN(C(=O)c2ccccc2)CC1`, the cell number change is -5.64%. In addition, under setting [1], the AC50 is 0.731 µM [rising, single point].

With `COc1cc(CCC(=O)OCC(=O)NC2CCCC(C)C2C)cc(OC)c1OC` (stereo not drawn), the cell number change was -33.1%. Turning to `C=CC(=O)NCC1OCCc2ccccc21` (stereo not drawn), the cell number change came to 9.03%. Besides, under setting [1], the AC50 is 13 µM [rising, single point]. Regarding `CCn1cnc2cc([N+](=O)[O-])ccc21`, the cell number change turned out to be 9.05%. In the case of `Cc1ccc(OCCn2c3ccccc3n3nc(C)c(=O)nc23)cc1`, the cell number change is -5.1%. Further, the concentration at half-maximal activity (AC50) under setting [1] was 0.461 µM [falling, partial curve, poor fit]. With `CN(CC(=O)O)S(=O)(=O)c1ccc2c(c1)n(C)c(=O)c(=O)n2C`, the cell number change worked out at 6.91%. Turning to `CC1Oc2ccccc2N(Cc2ccccc2F)C1=O` (stereo not drawn), the cell number change was -11.6%. As for `Clc1ccc(CCNc2ncnc3nc[nH]c23)cc1`, the cell number change is -30.7%. The half-maximal activity concentration (AC50) under setting [2] is 16.4 µM [falling, single point]. Under setting [1], the AC50 is 16.4 µM [falling, single point]. As to `CCn1c(C)cc(C(=O)CN2C(=O)c3ccccc3S2(=O)=O)c1C`, the cell number change was found to be 5.1%. Further, the AC50 under setting [1] is 4.11 µM [rising, single point].

For the molecule `CCOc1ccc(-c2c(C(=O)N/N=C/c3ccc(O)cc3)nnn2-c2nonc2N)cc1`, the cell number change was -5.02%.

As for `O=C(NC(=S)N1CCc2ccccc21)C1CCC1`, the cell number change was -2.44%. On to `COc1ccc(N2CCCCn3c2nc2c3c(=O)[nH]c(=O)n2C)cc1`, for which the cell number change stood at 22.3%. Under setting [1], the AC50 was 23.1 µM [rising, single point]. For `O=C(NC1CCSc2ccccc21)c1ccccc1Br` (stereo not drawn), the cell number change was determined as 26.5%. The half-maximal activity concentration (AC50) under setting [2] was 1.84 µM [rising, full curve, poor fit]. Moreover, under setting [1], the AC50 was 0.58 µM [rising, single point]. With `Cc1ccc2c(CSc3nnc(C4CC4)n3N)cc(=O)oc2c1C`, the cell number change was 8.5%. Besides, the AC50 under setting [2] was 0.00517 µM [rising, full curve, poor fit]. As to `Cc1ccc(NC(=O)CNS(=O)(=O)c2ccc(F)cc2)cc1C`, the cell number change was determined as 80.6%. In addition, the AC50 under setting [2] was 6.51 µM [falling, single point]. Besides, under setting [1], the AC50 was 29.1 µM [rising, single point]. On to `CCOC(=O)c1cc(C(=O)OCC)c2cc(Br)ccc2n1`, for which the cell number change is -24.2%. Also, the AC50 under setting [1] was 3.66 µM [falling, single point]. In the case of `N#Cc1c(NC(=O)C2CC(c3c(F)cccc3Cl)=NO2)sc2c1CCC2` (stereo not drawn), the cell number change came to 5.78%. In addition, the half-maximal activity concentration (AC50) under setting [1] is 0.651 µM [rising, partial curve]. As for `Cc1sc2ncn(CC(=O)N3CCC(C(N)=O)CC3)c(=O)c2c1S(=O)(=O)N1CCOCC1`, the cell number change was -3.85%. Besides, the half-maximal activity concentration (AC50) under setting [1] was 9.2 µM [falling, partial curve, poor fit]. For `COc1cc2c(cc1OC)C(c1ccco1)CC(=O)N2` (stereo not drawn), under setting [1], the AC50 is 0.231 µM [falling, full curve, poor fit].

In the case of `Cc1cccc(/C=C2/SC(=O)N(Cc3ccccc3)C2=O)n1`, the cell number change was 66.8%. Besides, the AC50 under setting [2] was 8.2 µM [rising, partial curve]. With `CCn1c(SCCOc2ccc(OC)cc2)nnc1C(CO)NC(=O)c1ccc(OC)cc1` (stereo not drawn), the cell number change was 8.59%. In addition, the half-maximal activity concentration (AC50) under setting [1] is 16.4 µM [falling, single point]. With `Cn1ccnc1SCC(=O)c1ccc(C#N)cc1`, the cell number change was 4.2%. Also, the AC50 under setting [1] is 29.1 µM [falling, single point].

On to `O=C(Nc1ccc(S(=O)(=O)N2CCCC2)cc1)C1CCN(S(=O)(=O)c2ccc(F)cc2)CC1`, for which the cell number change amounted to 10%. Take `Cc1ccc(Cn2nnc3c(=O)[nH]c(C4CCCN(C(=O)Nc5ccc(F)cc5)C4)nc32)cc1` (stereo not drawn): the cell number change is -10.3%. Also, the AC50 under setting [1] was 20.6 µM [rising, single point].

On to `CCC(Oc1ccccc1)C(=O)Nc1cc(C(F)(F)F)ccc1N1CCOCC1` (stereo not drawn), for which the cell number change stood at 10.5%. As to `Cc1ccc(CCNC(=O)C2CCCN(S(C)(=O)=O)C2)cc1` (stereo not drawn), the cell number change is -10.6%. In addition, the AC50 under setting [1] was 0.00411 µM [falling, full curve, poor fit].
